This is an account of results in paper PMC4675091.

The target of one experiment is casein. The experiment can be described thus: affinity purification with mass spectrometry; purified DARPP-32 or casein coupled to NHS-activated Sepharose; precleared rat striatal lysate, 2 h at 4 °C, 50 mM Tris-HCl pH 7.5, 0.5% Triton X-100, 1 mM DTT, 2 mM EDTA; salt step elution (band at 150 mM NaCl); excised bands by LC-MS/MS; only the target purified.
Experiment [1] deals with T1, purified rat DARPP-32 (rat) (UniProt Q6J4I0).
T1 sequence: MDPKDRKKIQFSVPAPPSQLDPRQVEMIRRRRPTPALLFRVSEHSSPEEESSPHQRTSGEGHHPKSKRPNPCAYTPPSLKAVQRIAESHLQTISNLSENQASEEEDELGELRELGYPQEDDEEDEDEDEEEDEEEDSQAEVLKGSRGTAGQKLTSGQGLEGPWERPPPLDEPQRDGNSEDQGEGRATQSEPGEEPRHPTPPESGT
Described as above.

These are yes or no findings as the source states them, for the method shown. Binding seen in cells or lysates may run through a third protein. Here binding means that the protein was enriched with, or labelled near, the bait; the list need not be complete. For some of these results: A no says only that the protein was not detected with the bait.

B1: α-adducin (rat striatal lysate) (protein, UniProt Q63028 1-735)
chain: MNGDTRAAVVTSPPPTTAPHKERYFDRVDENNPEYLRERNMAPDLRQDFNMMEQKKRVSMILQSPAFCEELESMIQEQFKKGKNPTGLLALQQIADFMTASVPNVYPAAPQGGMAALNMSLGMVTPVNDLRGSDSIAYDKGEKLLRCKLAAFYRLADLFGWSQLIYNHITTRVNSEQEHFLIVPFGLLYSEVTASSLVKVNLQGDIVDRGSTNLGVNQAGFTLHSAIYAARPDAKCIVHIHTPAGAAVSAMKCGLLPISPEALSLGEVAYHDYHGILVDEEEKILIQKNLGPKSKVLILRNHGLVSVGESVEEAFYYIHNLVVACEIQVRTLASAGGPDNLVLLDPGKYKAKSRSPGTPAGEGSGSPPKWQIGEQEFEALMRMLDNLGYRTGYPYRYPALRERSKKYSDVEVPASVTGHSFASDGDSGTCSPLRHSFQKQQREKTRWLNSGRGDDASEEGQNGSSPKSKTKWTKEDGHRTSTSAVPNLFVPLNTNPKEVQEMRNKIREQNLQDIKTAGPQSQVLCGVMMDRSLVQGELVTASKAIIEKEYQPHVIVSTTGPNPFNTLTDRELEEYRREVERKQKGSEENLDETREQKEKSPPDQSAVPNTPPSTPVKLEGGLPQEPTSRDGSDATTSKPTPPDLSPDEPSEALAFPTVAEEAHASPDTTQPLAEADPEPASASAPGAEEVASPATEEGSPMDPGSDGSPGKSPSKKKKKFRTPSFLKKSKKKSDS
Regarding B1, the binding result is given as “no binding” in the experiment with casein and “binds” in experiment [1].

B2: β-adducin (rat striatal lysate) (protein, UniProt Q05764 1-725)
chain: MSEDTVPEAASPPPSQGQHYFDRFSEDDPEYLRLRNRAADLRQDFNLMEQKKRVTMILQSPSFREELEGLIQEQMKKGNNSSNIWALRQIADFMASTSHAVFPASSMNFSMMTPINDLHTADSLNLAKGERLMRCKISSVYRLLDLYGWAQLSDTYVTLRVSKEQDHFLISPKGVSCSEVTASSLIKVNILGEVVEKGSSCFPVDTTGFSLHSAIYAARPDVRCAIHLHTPATAAVSAMKCGLLPVSHNALLVGDMAYYDFNGEMEQEADRINLQKCLGPTCKILVLRNHGMVALGDTVEEAFYKVFHLQAACEVQVSALSSAGGTENLILLEQEKHRPHEVGSVQWAGSTFGPMQKSRLGEHEFEALMRMLDNLGYRTGYTYRHPFVQEKTKHKSEVEIPATVTAFVFEEDGVPVPALRQHAQKQQKEKTRWLNTPNTYLRVNVADEVQRNMGSPRPKTTWMKADEVEKSSSGMPIRIENPNQFVPLYTDPQEVLDMRNKIREQNRQDIKSAGPQSQLLASVIAEKSRSPSTESQLASKGDADTKDELEETVPNPFSQLTDQELEEYKKEVERKKLEQEQEGEKDAATEEPGSPVKSTPASPVQSPTRAGTKSPAVSPSKASEDAKKTEVSEANTEPEPEKPEGVVVNGKEEEPCVEEVLSKGPGQMTTNADTDGDSYKDKTESVTSGPLSPEGSPSKSPSKKKKKFRTPSFLKKSKKKEKVES
Consider B2, for which the binding entry is reported as “no binding” in the experiment with casein and “binds” in experiment [1].
